Data taken from PMC4147360.

Amino acid sequences for entries named in this document (tags omitted). A change or cut given only in a name is not applied to a line headed by its entry.
UniProt B0S7C8: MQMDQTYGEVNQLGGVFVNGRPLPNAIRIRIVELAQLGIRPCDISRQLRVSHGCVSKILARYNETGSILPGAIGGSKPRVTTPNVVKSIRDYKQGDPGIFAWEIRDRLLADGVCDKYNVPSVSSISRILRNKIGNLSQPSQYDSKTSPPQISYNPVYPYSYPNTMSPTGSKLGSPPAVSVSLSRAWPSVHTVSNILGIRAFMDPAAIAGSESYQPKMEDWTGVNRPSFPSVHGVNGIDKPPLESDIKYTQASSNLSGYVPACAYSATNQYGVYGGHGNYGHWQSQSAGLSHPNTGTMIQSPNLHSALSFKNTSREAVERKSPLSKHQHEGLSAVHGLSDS
UniProt Q12778: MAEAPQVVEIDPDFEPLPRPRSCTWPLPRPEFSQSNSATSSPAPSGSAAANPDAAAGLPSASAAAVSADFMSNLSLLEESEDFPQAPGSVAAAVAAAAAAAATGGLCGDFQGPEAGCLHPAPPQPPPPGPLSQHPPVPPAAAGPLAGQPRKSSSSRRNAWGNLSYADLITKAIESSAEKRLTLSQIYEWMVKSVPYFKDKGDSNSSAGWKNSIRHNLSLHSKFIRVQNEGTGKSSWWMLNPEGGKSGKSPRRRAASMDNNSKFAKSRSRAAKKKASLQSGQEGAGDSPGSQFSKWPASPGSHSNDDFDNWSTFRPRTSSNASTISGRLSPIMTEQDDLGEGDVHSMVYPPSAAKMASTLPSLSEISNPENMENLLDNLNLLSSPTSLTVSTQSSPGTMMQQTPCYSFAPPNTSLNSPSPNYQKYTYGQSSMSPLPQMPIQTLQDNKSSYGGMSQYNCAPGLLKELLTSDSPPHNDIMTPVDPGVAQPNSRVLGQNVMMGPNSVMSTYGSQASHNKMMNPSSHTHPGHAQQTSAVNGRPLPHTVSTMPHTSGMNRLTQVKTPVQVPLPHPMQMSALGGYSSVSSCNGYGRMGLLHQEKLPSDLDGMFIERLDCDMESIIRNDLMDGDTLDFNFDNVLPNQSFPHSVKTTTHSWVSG

Molecular target: Flag-tagged zebrafish Pax1b (zebrafish) (UniProt B0S7C8)
Assay: co-IP; HEK293FT cells co-transfected with Myc-tagged FOXO1 and a Flag-tagged Pax protein; lysate immunoprecipitated with anti-Flag M2 affinity resin, immunoblotted; also after CoCl2 (2, 20, 200, 400 umol/L, 14 h), which strengthened the PAX1-FOXO1 interaction

Myc-tagged FOXO1 (from UniProt Q12778 1-655)
binding: binds

Results are given in words; binding and its absence hold for the method and conditions named. In cells and extracts the contact can be indirect. Binding can be weak; no strength is given.
